Source: publication PMC2194712, “Structure of Arabidopsis thaliana 5-methylthioribose kinase reveals a more occluded active site than its bacterial homolog” (BMC Structural Biology, 2007)
These are yes or no findings as the source states them, for the method shown. Some entries that bind do so weakly or less than the wild type.

Target: Arabidopsis thaliana 5-methylthioribose kinase (Arabidopsis thaliana) (UniProt Q9C6D2)
Assay: crystal structure; co-crystallised with ATPγS and MTR (ADP and MTR found bound); space group C2, a dimer per asymmetric unit; 1.9 Å; both purified

B1: Arabidopsis thaliana 5-methylthioribose kinase (enzyme, UniProt Q9C6D2 1-420, looked up)
chain: MSFEEFTPLNEKSLVDYIKSTPALSSKIGADKSDDDLVIKEVGDGNLNFVFIVVGSSGSLVIKQALPYIRCIGESWPMTKERAYFEATTLRKHGNLSPDHVPEVYHFDRTMALIGMRYLEPPHIILRKGLIAGIEYPFLADHMSDYMAKTLFFTSLLYHDTTEHRRAVTEFCGNVELCRLTEQVVFSDPYRVSTFNRWTSPYLDDDAKAVREDSALKLEIAELKSMFCERAQALIHGDLHTGSVMVTQDSTQVIDPEFSFYGPMGFDIGAYLGNLILAFFAQDGHATQENDRKEYKQWILRTIEQTWNLFNKRFIALWDQNKDGPGEAYLADIYNNTEVLKFVQENYMRNLLHDSLGFGAAKMIRRIVGVAHVEDFESIEEDKRRAICERSALEFAKMLLKERRKFKSIGEVVSAIQQQS
notes: 5-methylthioribose (MTR) kinase of Arabidopsis thaliana, 420 residues; residues 1 and 420 are named as part of the crystallised protein (not modelled); also called A. thaliana MTR kinase; MTR kinase
  binding: binds
